# Source: the supplement of paper PMC8256030
# The list shows a part of the results. Repeats in this data set agree poorly, so a single value says little.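 HEK293T cells were given each compound shortly before transfection with a reporter in which red mCherry is followed by the SARS-CoV-2 frameshift element and then GFP in the −1 frame, so GFP appears only after frameshifting.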
# System: HEK293T
# Experiment: percent viability (nuclei count) relative to control; higher = more viable cells
# Conditions: 10 µM; 24 h
row,Compound,percent viability
1,CN(C)/N=N/c1[nH]cnc1C(N)=O,174%
2,CCOC(=O)C1=C[C@]2(CC)CCCN3CCc4c(n1c1ccccc41)[C@@H]32 [Vinpocetine],221%
3,O=c1[nH]cnc2c1ncn2[C@@H]1O[C@H](CO)[C@@H](O)[C@H]1O,254%
4,CN1C(C(=O)Nc2ccccn2)=C(O)c2ccccc2S1(=O)=O [piroxicam],272%
5,CC(C)OC(=O)CCC/C=C\C[C@@H]1[C@@H](CC[C@@H](O)CCc2ccccc2)[C@H](O)C[C@@H]1O [latanoprost],88.8%
6,Cc1ccnc2c1NC(=O)c1cccnc1N2C1CC1 [nevirapine],362%
7,CN1CCN(CCC(=O)N2c3ccccc3Sc3ccc(C(F)(F)F)cc32)CC1 [ftormetazine],14.4%
8,CCN(CC)CCOc1ccc(C(O)(Cc2ccc(Cl)cc2)c2ccc(C)cc2)cc1 (stereo not given) [triparanol],261%
9,OCc1ccccn1,76.7%
10,CC(C)(C)NCC(O)c1cc(Br)no1 (stereo not given) [broxaterol],236%
11,OC[C@H]1O[C@@H](n2cnc3c2N=CNC[C@H]3O)C[C@@H]1O [Pentostatin],16.6%
12,Oc1ncnc2[nH]ncc12,262%
13,COc1ccc2c(c1)CCC(c1ccccc1)=C2c1ccc(OCCN2CCCC2)cc1 [nafoxidine],387%
14,C1COC(NC(C2CC2)C2CC2)=N1 [Rilmenidine phosphate],324%
15,COC(=O)[C@H]1[C@H]2C[C@@H]3c4[nH]c5cc(OC)ccc5c4CCN3C[C@H]2C[C@@H](OC(=O)c2cc(OC)c(OC)c(OC)c2)[C@@H]1OC,210%

# 3 entries from above, as tab-separated lines:
row	Compound	percent viability
9	OCc1ccccn1	76.7%
10	CC(C)(C)NCC(O)c1cc(Br)no1 (stereo not given) [broxaterol]	236%
11	OC[C@H]1O[C@@H](n2cnc3c2N=CNC[C@H]3O)C[C@@H]1O [Pentostatin]	16.6%
